Laboratory results: paper PMC10326024
These are yes or no findings as the source states them, for the method shown. Binding seen in cells or lysates may run through a third protein. These calls come from enrichment with a bait or labelling near it, and not all partners need be listed. Tags and fused reporters may be left off the sequences shown.

Amino acid sequences for entries named in this document (tags omitted).
UniProt P24385: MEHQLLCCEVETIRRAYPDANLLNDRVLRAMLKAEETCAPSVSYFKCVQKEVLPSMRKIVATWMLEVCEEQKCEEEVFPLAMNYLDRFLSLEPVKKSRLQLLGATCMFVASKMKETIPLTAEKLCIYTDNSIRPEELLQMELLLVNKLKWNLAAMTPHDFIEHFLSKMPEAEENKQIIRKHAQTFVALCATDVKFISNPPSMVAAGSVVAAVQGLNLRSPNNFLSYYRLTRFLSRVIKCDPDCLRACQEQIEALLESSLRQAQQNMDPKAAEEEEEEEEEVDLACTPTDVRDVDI
UniProt Q00534: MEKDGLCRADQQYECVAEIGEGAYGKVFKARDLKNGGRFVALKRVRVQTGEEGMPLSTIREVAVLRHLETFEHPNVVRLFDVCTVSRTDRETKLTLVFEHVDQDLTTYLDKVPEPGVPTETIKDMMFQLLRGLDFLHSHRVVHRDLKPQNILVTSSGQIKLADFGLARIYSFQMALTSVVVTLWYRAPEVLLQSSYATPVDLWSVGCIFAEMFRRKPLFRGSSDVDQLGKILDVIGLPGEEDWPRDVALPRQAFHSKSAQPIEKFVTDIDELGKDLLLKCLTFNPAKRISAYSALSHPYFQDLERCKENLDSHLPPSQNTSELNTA

Target: T1, MYC-tagged MG53 (TRIM72) (human) (UniProt Q6ZMU5)
T1 sequence: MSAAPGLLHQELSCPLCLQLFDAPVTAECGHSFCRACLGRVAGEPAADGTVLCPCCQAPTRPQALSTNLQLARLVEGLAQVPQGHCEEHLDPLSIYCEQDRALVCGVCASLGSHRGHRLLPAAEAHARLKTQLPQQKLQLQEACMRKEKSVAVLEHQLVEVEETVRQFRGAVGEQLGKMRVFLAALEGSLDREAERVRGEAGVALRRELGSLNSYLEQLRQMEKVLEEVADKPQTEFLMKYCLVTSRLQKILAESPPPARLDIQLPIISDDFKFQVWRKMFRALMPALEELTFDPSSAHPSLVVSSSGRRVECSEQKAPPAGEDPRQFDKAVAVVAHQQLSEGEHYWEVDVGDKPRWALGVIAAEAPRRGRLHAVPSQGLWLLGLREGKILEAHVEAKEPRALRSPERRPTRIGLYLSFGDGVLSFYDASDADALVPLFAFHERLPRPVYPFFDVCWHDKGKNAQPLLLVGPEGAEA
Test: affinity purification with mass spectrometry; C-terminally MYC-tagged MG53 expressed by adenovirus in HCT116 or AGS cells; immunoprecipitated with anti-MYC antibody (IgG control) on protein A Sepharose; gel bands analysed by LC-MS/MS

| binding | Substance |
| --- | --- |
| binds | endogenous cyclin D1 (from UniProt P24385 1-295) |
| binds | CDK6 (from UniProt Q00534 1-326) (enzyme) |
